Test results reported in paper PMC11589570, “Critical assessment of LC3/GABARAP ligands used for degrader development and ligandability of LC3/GABARAP binding pockets” (Nature Communications, 2024).
Values joined by “and” are separate entries in the source; they are usually repeats but may differ in a detail not shown here. Identical values can stand only once. Like-named read-outs stand apart in the source and are kept apart here. The source gives many values for each of these; only a part stands here.

Sequences of proteins named here, by UniProt entry; tags and fusion partners are left off. Residues count along the entry.
UniProt O95166, 1-116: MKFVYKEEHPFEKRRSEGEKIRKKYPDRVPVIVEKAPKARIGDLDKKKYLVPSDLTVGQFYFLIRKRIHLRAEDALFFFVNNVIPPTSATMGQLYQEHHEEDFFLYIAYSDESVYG

Key:
[1] = tested on: RPE1 cells; assay: Cell growth assay (IncuCyte confluence over 72 h); format: cell-based
Experimental: (§1) Cell growth assay: Cell confluence (phase) from RPE1 (hTERT RPE-1, ATCC CLR_4000) or U2OS (ATCC, HTB-96) cell lines were monitored over time with the IncuCyte S3 (Sartiorius, Germany) in 384-well plates in 50 ul DMEM media, supplemented with 10% Fetal Bovine Serum (FBS) 1% penicillin/Streptomycin and incubated 24 h before treatment. Experiment was performed as described in Cano-Franco et al.. 50 μl of media containing either 2× final concentration of indicated compounds in or control compounds (final conc.: 0.1% DMSO, 250 nM Torin1, 200 ng/mL Bafilomycin) were added and images were taken every two hours over 72 h. Cell confluence is represented as % of area covered by cells. Each data point represents the average ratio or confluence obtained from three individual wells of the plate.

[2] = tested on: U2OS cells; assay: Cell growth assay (IncuCyte confluence over 72 h); format: cell-based; set-up: key: % of well area covered by cells (confluence)
Experimental: as §1, with “50 μl of media containing either 2× final concentration of indicated compounds in or control compounds (final conc.: 0.1% DMSO, 250 nM Torin1, 200 ng/mL Bafilomycin) were added and images were taken every two hours over 72 h.” left out

[3] = biological target: LC3B (Homo sapiens, UniProt Q9GZQ8); details: LC3B:TH152 1:2
[4] = biological target: GABARAP (Homo sapiens, UniProt O95166); format: binding; details: GABARAP:TH152 molar ratio 1:2

SMILES: CO[C@@H]1[C@@H](OC(N)=O)[C@@H](O)[C@H](Oc2ccc3c(O)c(NC(=O)c4ccc(O)c(CC=C(C)C)c4)c(=O)oc3c2C)OC1(C)C [compound 12, Novobiocin]
- RPE1 cell growth ([1]; 100 nM, 12 h): 38 and 20 and 23
- RPE1 cell growth ([1]; 100 nM, 14 h): 41 and 22 and 25
- RPE1 cell growth ([1]; 100 nM, 16 h): 43 and 25 and 26
- RPE1 cell growth ([1]; 100 nM, 18 h): 48 and 25 and 28
- RPE1 cell growth ([1]; 500 nM, 10 h): 25
- RPE1 cell growth ([1]; 500 nM, 12 h): 44 and 23 and 27
- RPE1 cell growth ([1]; 500 nM, 14 h): 45 and 24 and 29
- RPE1 cell growth ([1]; 500 nM, 16 h): 47 and 26 and 30
- RPE1 cell growth ([1]; 500 nM, 18 h): 51 and 27 and 32
- RPE1 cell growth ([1]; 1 uM, 10 h): 35
- RPE1 cell growth ([1]; 1 uM, 12 h): 29 and 38
- RPE1 cell growth ([1]; 1 uM, 14 h): 31 and 40 and 29
- RPE1 cell growth ([1]; 1 uM, 16 h): 32 and 42 and 33
- RPE1 cell growth ([1]; 1 uM, 18 h): 32 and 46 and 33
- RPE1 cell growth ([1]; 3 uM, 12 h): 41 and 28 and 35
- RPE1 cell growth ([1]; 3 uM, 14 h): 44 and 26 and 37
- RPE1 cell growth ([1]; 3 uM, 16 h): 46 and 30 and 39
- RPE1 cell growth ([1]; 3 uM, 18 h): 49 and 30 and 41
- RPE1 cell growth ([1]; 5 uM, 12 h): 41 and 28 and 33
- RPE1 cell growth ([1]; 5 uM, 14 h): 43 and 28 and 36
- RPE1 cell growth ([1]; 5 uM, 16 h): 43 and 31 and 38
- RPE1 cell growth ([1]; 5 uM, 18 h): 47 and 32 and 39
- RPE1 cell growth ([1]; 10 uM, 12 h): 35 and 30 and 28
- RPE1 cell growth ([1]; 10 uM, 14 h): 37 and 32 and 29
- RPE1 cell growth ([1]; 10 uM, 16 h): 40 and 34 and 30
- RPE1 cell growth ([1]; 10 uM, 18 h): 41 and 33 and 31
- U2OS cell growth ([2]; 100 nM, time 12 h): 30.039 and 31.8169 and 25.957
- U2OS cell growth ([2]; 100 nM, time 14 h): 36.7184 and 35.7351 and 29.7044
- U2OS cell growth ([2]; 100 nM, time 16 h): 39.2889 and 37.9845 and 31.4528
- U2OS cell growth ([2]; 100 nM, time 18 h): 37.2011 and 35.9358 and 33.7024
- U2OS cell growth ([2]; 500 nM, time 12 h): 39.6018 and 39.3063 and 46.5513
- U2OS cell growth ([2]; 500 nM, time 14 h): 41.6345 and 42.6666 and 49.2704
- U2OS cell growth ([2]; 500 nM, time 16 h): 45.3907 and 47.9062 and 52.0609
- U2OS cell growth ([2]; 500 nM, time 18 h): 43.4852 and 49.3841 and 54.0055
- U2OS cell growth ([2]; 1 uM, time 12 h): 44.5254 and 40.9759
- U2OS cell growth ([2]; 1 uM, time 14 h): 46.2098 and 49.2616 and 53.9991
- U2OS cell growth ([2]; 1 uM, time 16 h): 49.3975 and 54.5674 and 61.7887
- U2OS cell growth ([2]; 1 uM, time 18 h): 51.145 and 49.7067 and 53.3117
- U2OS cell growth ([2]; 3 uM, time 14 h): 54.2995 and 61.1013 and 64.7775
- U2OS cell growth ([2]; 3 uM, time 16 h): 65.8831 and 67.2199 and 65.8756
- U2OS cell growth ([2]; 3 uM, time 18 h): 53.1738 and 59.7189 and 63.6078
- U2OS cell growth ([2]; 5 uM, time 12 h): 54.1011 and 52.9989 and 58.4408
- U2OS cell growth ([2]; 5 uM, time 14 h): 62.2169 and 55.4187 and 56.6119
- U2OS cell growth ([2]; 5 uM, time 16 h): 62.198 and 60.0966 and 65.9718
- U2OS cell growth ([2]; 5 uM, time 18 h): 63.919 and 64.0354 and 66.2673
- U2OS cell growth ([2]; 10 uM, time 12 h): 46.2464 and 34.4066 and 44.9751
- U2OS cell growth ([2]; 10 uM, time 14 h): 50.641 and 37.3573 and 48.3201
- U2OS cell growth ([2]; 10 uM, time 16 h): 53.2653 and 40.2477 and 51.4709
- U2OS cell growth ([2]; 10 uM, time 18 h): 55.6575 and 43.8694 and 53.8696

SMILES: CCCCCCC(Sc1nc(Cl)cc(Nc2nc(-c3ccc(C(=O)O)cc3)cs2)n1)C(=O)O (stereo not drawn) [compound 21]
- CSP ([3]; LC3B residue E04, estimated): 0.020 ppm
- CSP ([3]; LC3B residue F79): 0.026 ppm
- CSP ([3]; LC3B residue F80): 0.043 ppm
- CSP ([3]; LC3B residue G85): 0.340 ppm
- CSP ([3]; LC3B residue H86): 0.225 ppm
- CSP ([3]; LC3B residue I95): 0.218 ppm
- CSP ([3]; LC3B residue K05): 0.022 ppm
- CSP ([3]; LC3B residue L81): 0.196 ppm
- CSP ([3]; LC3B residue L82): 0.348 ppm
- CSP ([3]; LC3B residue M88): 0.096 ppm
- CSP ([3]; LC3B residue N84): 0.200 ppm
- CSP ([3]; LC3B residue P94, estimated): 0.260 ppm
- CSP ([3]; LC3B residue S87): 0.288 ppm
- CSP ([3]; LC3B residue S90): 0.272 ppm
- CSP ([3]; LC3B residue S92): 0.283 ppm
- CSP ([3]; LC3B residue T93): 0.304 ppm
- CSP ([3]; LC3B residue V83): 0.350 ppm
- CSP ([3]; LC3B residue V89): 0.263 ppm
- CSP ([3]; LC3B residue V91, estimated): 0.280 ppm
- CSP ([4]; GABARAP residue A89): 0.029 ppm
- CSP ([4]; GABARAP residue G92): 0.035 ppm
- CSP ([4]; GABARAP residue I84): 0.034 ppm
- CSP ([4]; GABARAP residue L94): 0.045 ppm
- CSP ([4]; GABARAP residue M91): 0.054 ppm
- CSP ([4]; GABARAP residue N82): 0.008 ppm
- CSP ([4]; GABARAP residue P85, estimated): 0.025 ppm
- CSP ([4]; GABARAP residue P86, estimated): 0.020 ppm
- CSP ([4]; GABARAP residue Q93): 0.036 ppm
- CSP ([4]; GABARAP residue S88): 0.030 ppm
- CSP ([4]; GABARAP residue T87): 0.020 ppm
- CSP ([4]; GABARAP residue T90): 0.046 ppm
- CSP ([4]; GABARAP residue V4, estimated): 0.005 ppm
- CSP ([4]; GABARAP residue V83): 0.010 ppm
- CSP ([4]; GABARAP residue Y5, estimated): 0.005 ppm
- CSP ([4]; GABARAP residue Y95): 0.030 ppm
